Data reported in publication PMC8558183.
Results are given in words; binding and its absence hold for the method and conditions named. In cells and extracts the contact can be indirect. Some binding calls cover weakened binding; strength is not graded here. For some assays here: Where a sequence is shown, tags or fusion partners need not be part of it.

Chains of the proteins cited; added tags and fusions are not shown.
UniProt P23771: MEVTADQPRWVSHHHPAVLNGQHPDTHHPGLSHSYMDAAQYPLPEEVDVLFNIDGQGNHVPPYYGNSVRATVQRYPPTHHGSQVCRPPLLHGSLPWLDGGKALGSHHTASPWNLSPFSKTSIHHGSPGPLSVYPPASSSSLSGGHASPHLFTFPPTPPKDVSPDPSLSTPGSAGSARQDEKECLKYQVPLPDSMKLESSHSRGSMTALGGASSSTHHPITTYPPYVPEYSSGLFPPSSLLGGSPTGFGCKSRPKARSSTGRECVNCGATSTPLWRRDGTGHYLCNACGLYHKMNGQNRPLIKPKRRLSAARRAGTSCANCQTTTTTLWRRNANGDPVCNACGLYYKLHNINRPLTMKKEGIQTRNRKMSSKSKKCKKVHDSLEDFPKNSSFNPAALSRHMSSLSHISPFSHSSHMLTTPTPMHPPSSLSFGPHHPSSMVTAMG

Experiments:
[1] = molecular target: T1, GST-full-length (FL) menin (UniProt O00255); test: pull-down; 1.25 µg purified GST menin protein or GST control protein incubated with 1 mg or 2 mg of nuclear cell extracts from MCF7 cells; western blot with anti-GATA3 or anti-FOXA1 antibodies; only the target purified
T1 sequence: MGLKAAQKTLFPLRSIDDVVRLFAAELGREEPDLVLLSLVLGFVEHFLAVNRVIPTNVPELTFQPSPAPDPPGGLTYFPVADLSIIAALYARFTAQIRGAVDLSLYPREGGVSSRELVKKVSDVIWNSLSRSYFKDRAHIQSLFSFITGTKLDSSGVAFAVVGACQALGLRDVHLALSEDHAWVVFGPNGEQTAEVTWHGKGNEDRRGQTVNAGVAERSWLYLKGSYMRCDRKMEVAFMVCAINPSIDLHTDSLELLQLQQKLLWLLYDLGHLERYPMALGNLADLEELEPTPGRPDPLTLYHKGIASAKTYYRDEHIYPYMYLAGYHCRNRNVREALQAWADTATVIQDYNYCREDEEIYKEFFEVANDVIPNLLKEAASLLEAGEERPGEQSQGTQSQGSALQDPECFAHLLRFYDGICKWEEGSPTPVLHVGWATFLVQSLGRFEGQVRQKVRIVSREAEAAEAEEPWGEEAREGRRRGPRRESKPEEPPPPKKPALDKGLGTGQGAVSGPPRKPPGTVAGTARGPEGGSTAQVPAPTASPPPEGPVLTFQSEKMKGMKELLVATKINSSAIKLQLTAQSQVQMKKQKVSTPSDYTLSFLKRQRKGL

[2] = molecular target: GATA3 (human (endogenous in MCF7)) (UniProt P23771); test: proximity ligation; Duolink II PLA with anti-menin and anti-GATA3 antibodies in methanol-fixed MCF7 cells; ZR75-1 cells (no menin) as control
[3] = molecular target: GATA3 (human (endogenous in MCF7)) (UniProt P23771); test: co-IP; nuclear lysates of MCF7 cells incubated with anti-IgG, anti-GATA3 or anti-FOXA1 antibodies, western blot; endogenous level
[4] = molecular target: T2, FOXA1 (human (endogenous in MCF7)) (UniProt P55317); test: as above
T2 sequence: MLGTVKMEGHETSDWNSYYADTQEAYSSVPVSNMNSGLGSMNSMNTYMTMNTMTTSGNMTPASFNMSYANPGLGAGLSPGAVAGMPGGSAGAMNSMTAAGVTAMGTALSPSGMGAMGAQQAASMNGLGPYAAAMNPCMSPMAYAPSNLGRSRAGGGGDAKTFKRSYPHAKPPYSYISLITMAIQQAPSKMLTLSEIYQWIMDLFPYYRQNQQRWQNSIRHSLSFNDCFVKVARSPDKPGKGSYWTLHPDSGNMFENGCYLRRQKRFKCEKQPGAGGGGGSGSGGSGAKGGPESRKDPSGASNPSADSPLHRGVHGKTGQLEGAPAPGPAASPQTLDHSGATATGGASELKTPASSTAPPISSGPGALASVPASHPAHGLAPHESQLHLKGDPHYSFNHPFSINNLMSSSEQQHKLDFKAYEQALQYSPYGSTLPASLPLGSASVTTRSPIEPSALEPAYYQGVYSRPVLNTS

## GATA3 (from UniProt P23771 1-443)
[1]
  binding: binds

B1: menin (protein, UniProt O00255 1-610)
chain: MGLKAAQKTLFPLRSIDDVVRLFAAELGREEPDLVLLSLVLGFVEHFLAVNRVIPTNVPELTFQPSPAPDPPGGLTYFPVADLSIIAALYARFTAQIRGAVDLSLYPREGGVSSRELVKKVSDVIWNSLSRSYFKDRAHIQSLFSFITGTKLDSSGVAFAVVGACQALGLRDVHLALSEDHAWVVFGPNGEQTAEVTWHGKGNEDRRGQTVNAGVAERSWLYLKGSYMRCDRKMEVAFMVCAINPSIDLHTDSLELLQLQQKLLWLLYDLGHLERYPMALGNLADLEELEPTPGRPDPLTLYHKGIASAKTYYRDEHIYPYMYLAGYHCRNRNVREALQAWADTATVIQDYNYCREDEEIYKEFFEVANDVIPNLLKEAASLLEAGEERPGEQSQGTQSQGSALQDPECFAHLLRFYDGICKWEEGSPTPVLHVGWATFLVQSLGRFEGQVRQKVRIVSREAEAAEAEEPWGEEAREGRRRGPRRESKPEEPPPPKKPALDKGLGTGQGAVSGPPRKPPGTVAGTARGPEGGSTAQVPAPTASPPPEGPVLTFQSEKMKGMKELLVATKINSSAIKLQLTAQSQVQMKKQKVSTPSDYTLSFLKRQRKGL
[2]
  binding: binds
[3]
  binding: binds
[4]
  binding: binds

B2: FOXA1 (protein, UniProt P55317 1-472)
chain: MLGTVKMEGHETSDWNSYYADTQEAYSSVPVSNMNSGLGSMNSMNTYMTMNTMTTSGNMTPASFNMSYANPGLGAGLSPGAVAGMPGGSAGAMNSMTAAGVTAMGTALSPSGMGAMGAQQAASMNGLGPYAAAMNPCMSPMAYAPSNLGRSRAGGGGDAKTFKRSYPHAKPPYSYISLITMAIQQAPSKMLTLSEIYQWIMDLFPYYRQNQQRWQNSIRHSLSFNDCFVKVARSPDKPGKGSYWTLHPDSGNMFENGCYLRRQKRFKCEKQPGAGGGGGSGSGGSGAKGGPESRKDPSGASNPSADSPLHRGVHGKTGQLEGAPAPGPAASPQTLDHSGATATGGASELKTPASSTAPPISSGPGALASVPASHPAHGLAPHESQLHLKGDPHYSFNHPFSINNLMSSSEQQHKLDFKAYEQALQYSPYGSTLPASLPLGSASVTTRSPIEPSALEPAYYQGVYSRPVLNTS
[1]
  binding: binds
